# Test results from PubChem BioAssay AID2551 (National Center for Advancing Translational Sciences (NCATS), 2010).
# Amino acid sequences for entries named in this document (tags omitted). A change or cut given only in a name is not applied to a line headed by its entry.
# UniProt P51450: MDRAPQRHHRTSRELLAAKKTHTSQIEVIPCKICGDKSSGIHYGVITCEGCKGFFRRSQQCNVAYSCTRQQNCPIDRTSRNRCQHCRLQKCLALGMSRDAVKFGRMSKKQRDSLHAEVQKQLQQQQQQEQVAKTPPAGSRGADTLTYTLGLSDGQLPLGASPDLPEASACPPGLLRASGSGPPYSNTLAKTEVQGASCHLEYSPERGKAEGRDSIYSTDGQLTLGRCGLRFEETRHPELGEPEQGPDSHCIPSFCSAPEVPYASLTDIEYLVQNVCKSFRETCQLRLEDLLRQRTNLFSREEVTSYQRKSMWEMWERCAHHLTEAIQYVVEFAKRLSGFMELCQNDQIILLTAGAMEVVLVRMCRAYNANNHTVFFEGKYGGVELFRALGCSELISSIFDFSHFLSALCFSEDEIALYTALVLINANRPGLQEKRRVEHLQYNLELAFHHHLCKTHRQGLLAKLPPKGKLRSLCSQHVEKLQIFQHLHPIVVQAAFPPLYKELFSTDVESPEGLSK
# Screen size: about 310,000 compounds; about 17,000 (5.5%) were called active. The inconclusive results got no clear call from the source; some entries with a clear call stand among them for comparison. Calls follow the shape of the dose curve; as a rule, active = well fitted inhibition curve with a large enough effect; inconclusive = small, poorly fitted or top-dose-only effect, or effect the other way; inactive = no such curve, though single readings can be large or run the other way. Potencies of inconclusive entries are doubtful fits and often do not repeat.
# Biological target: Nuclear receptor ROR-gamma (Mus musculus) (UniProt P51450)
# Experiment: qHTS for inhibitors of ROR gamma transcriptional activity; also: nearly all actives have a fitted effect of over 60% in size
# Conditions: Drosophila S2 Gal4-RORgamma UAS-luciferase reporter, 20 h; series mostly up to 53.6 µM
# How it was run: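 Schneider cells (Drosophila), stable Gal4 DBD–ROR gamma + UAS-luc; 1 hr cmpd preincubation; Cu2+ induction 700 uM final; 20 hr ambient; luminescence.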
# Potency is read from the fitted curve at half-maximal effect.
row,SMILES,Potency
1,COc1cccc(Cn2c(=S)[nH]c3ccc(N4CCOCC4)cc3c2=O)c1,active: 2.82 µM
2,COc1cc(/C=N/NC(=O)c2cncc(Br)c2)cc([N+](=O)[O-])c1O,active: 0.316 µM
3,CC(C)(C)OC(=O)NCCCCCNC(=O)c1[nH]cnc1C(=O)N[C@@H](Cc1ccccc1)C(=O)OCc1ccccc1,"inconclusive: 15.8 µM [inhibitor, single point]"
4,CCC(C)NC(=O)CSc1nc2ccccc2c(=O)n1Cc1ccc(OC)cc1 (centres undefined),inactive
5,O=C(N/N=C/c1ccc(-c2cccc([N+](=O)[O-])c2)o1)c1ccc([N+](=O)[O-])cc1,active: 2.51 µM
6,CC(C)CNC(=S)N(CCN(C)C)Cc1cc2cc3c(cc2[nH]c1=O)OCCO3,"inconclusive: 0.0794 µM [activator, full curve, poor fit]"
7,CCCNC(=S)Nc1ccc(Cl)cc1Cl,active: 11.2 µM
8,COc1ccc(C(=O)SC2=NCCS2)cc1OC,"inconclusive: 8.91 µM [inhibitor, partial curve, poor fit]"
9,Cn1nc(C(=O)Nc2nc3ccccc3[nH]2)c2ccccc2c1=O,"inconclusive: 15.8 µM [inhibitor, single point]"
10,COc1ccc(CC(=O)NCc2nnc(SCCOc3ccccc3)n2C)cc1,inactive
11,CC(NC(=O)C1CCCN(S(=O)(=O)N2CCOCC2)C1)c1ccccc1 (centres undefined),inactive
12,CC(=O)C1=C(c2ccccc2)NC(=O)NC1c1ccccc1OCC(=O)Nc1ccccc1 (centres undefined),"inconclusive: 35.5 µM [inhibitor, single point]"
13,Cc1cc(C(=O)CSc2nn3c(=O)c(C(C)(C)C)nnc3s2)c(C)n1-c1ccc(F)cc1,"inconclusive: 14.1 µM [activator, partial curve]"
14,O=[N+]([O-])c1ccc(-c2nc(-c3ccc(F)cc3)c(-c3ccncc3)[nH]2)cc1,inactive
15,Cc1ccc(NC(=O)CNC(=O)c2cccs2)cc1S(=O)(=O)Nc1ccc(Cl)cc1,"inconclusive: 1.58 µM [activator, partial curve]"
16,CC(C)Cc1nc2c(nnn2Cc2ccccc2F)c(=O)[nH]1,inactive
17,CC(C)(C)OC(=O)C1C(=O)CC(C)(O)C(C(=O)OC(C)(C)C)C1c1cccnc1 (centres undefined),inactive
18,CCOC(=O)c1oc2cccc(OCC(O)CNC(C)C)c2c1C (centres undefined),inactive
19,Cc1ccc(S(=O)(=O)N(Cc2cc3cccc(C)c3[nH]c2=O)c2ccccc2)cc1,"inconclusive: 0.0063 µM [activator, full curve, poor fit]"
20,CCOC(=O)c1c(Nc2ccccc2N)cc(C)nc1C,"inconclusive: 0.794 µM [inhibitor, full curve, poor fit]"
21,Nc1nc2ccc(Oc3ccccc3)cc2s1,"inconclusive: 0.794 µM [activator, full curve, poor fit]"
22,O=C(COc1ccccc1CNCc1ccccc1)Nc1ccccc1,"inconclusive: 6.31 µM [inhibitor, single point]"
23,C=C(C)COc1ccc(-c2ncncc2-c2ccc(Cl)cc2)c(O)c1,"inconclusive: 35.5 µM [inhibitor, single point]"
24,Cc1cnn(C(=S)NCc2ccco2)c1,inactive
25,O=C1Nc2cc(C(=O)N3CCN(Cc4ccccc4)CC3)ccc2SC1N1CCOCC1 (centres undefined),inactive

row,SMILES,Potency
1,Cc1ccc(NC(=O)CSc2nnc(CN3CCOCC3)n2-c2ccccc2)cc1,"inconclusive: 35.5 µM [activator, single point]"
2,Cc1ccccc1N1CCN(c2ccc(NC(=O)C3CCCCC3C(=O)O)cc2)CC1 (centres undefined),"inconclusive: 10 µM [activator, partial curve]"
3,COc1ccc(-c2nc3ccccc3nc2-c2ccc(OC)c(OC)c2)cc1OC,"inconclusive: 7.94 µM [activator, partial curve]"
4,CC1=C(C(=O)N(C)C)C(c2cccc(Cl)c2)NC(=O)N1 (centres undefined),active: 11.2 µM
5,Cc1cc(Oc2ccc(C#N)cc2)nc(NCc2ccccc2)n1,"inconclusive: 12.6 µM [activator, partial curve]"
6,CCCc1ccc(C(C)NC(=S)NC2CCCCC2)cc1 (centres undefined),active: 2.51 µM
7,CCOC(=O)c1ccccc1NC(=O)C1CC(=O)N(C2CCCCC2)C1 (centres undefined),"inconclusive: 7.08 µM [activator, partial curve]"
8,O=C(/C=C/Nc1ccc(Br)cc1F)c1ccccc1,active: 3.98 µM
9,O=C(c1ccccc1[N+](=O)[O-])N1N=C(c2ccccc2)CC1(O)C(F)(F)F (centres undefined),"inconclusive: 10 µM [inhibitor, partial curve]"
10,COc1ccc(NC(=O)N2c3ccccc3C(C)=CC2(C)C)cc1,inactive
11,CN(C)/C=C1/C=C(C=O)OC1=O,inactive
12,Cc1nc2nc(-c3ccccc3)[nH]n2c(=O)c1Cc1ccccc1,"inconclusive: 3.55 µM [activator, full curve]"
13,C=CCN1C(=O)C(C)(C)N(C(=O)c2cccc([N+](=O)[O-])c2)c2ccccc21,inactive
14,NNC(=O)c1sccc1OCc1ccc(Cl)cc1Cl,inactive
15,Cc1cccc(OCC(=O)NCCCNC(=O)c2ccncc2)c1,inactive
16,COc1cccc(C2CC(c3cccc(NS(C)(=O)=O)c3)=NN2C(=O)c2ccccc2)c1OC (centres undefined),active: 2 µM
17,COc1ccc(N2C(=O)C(Cl)=C(Nc3ccccc3OC)C2=O)cc1,"inconclusive: 14.1 µM [activator, partial curve]"
18,O=C(O)CCc1ccc(-c2cccs2)o1,active: 11.2 µM
19,O=C(NCCN1C(=O)S/C(=C\c2ccc(Cl)cc2)C1=O)c1ccc(F)c(S(=O)(=O)N2CCOCC2)c1,"inconclusive: 11.2 µM [activator, partial curve]"
20,Cc1[nH]n(-c2ccccc2)c(=O)c1C=Nc1cccc2cccnc12,active: 0.631 µM
21,CCOC(=O)N(CC)OC(=O)Nc1ccc(Cl)cc1,inactive
22,Clc1ccccc1CONc1ncnc2nonc12,"inconclusive: 14.1 µM [activator, single point]"
23,CC(C)(Oc1ccc(Cl)cc1)C(=O)Nc1ccc2oc(=O)ccc2c1,"inconclusive: 20 µM [activator, single point]"
24,COc1ccc(OCC(=O)N2CCN(c3nnc(-c4ccccc4)c4ccccc34)CC2)cc1,"inconclusive: 11.2 µM [activator, partial curve]"

# Molecules above that contain bromine (2):
row,SMILES,Potency
2,COc1cc(/C=N/NC(=O)c2cncc(Br)c2)cc([N+](=O)[O-])c1O,active: 0.316 µM
8,O=C(/C=C/Nc1ccc(Br)cc1F)c1ccccc1,active: 3.98 µM
